PMC11020294

Protein sequences, listed by entry. Tags and fused reporters are not part of them.
UniProt Q9FIB6: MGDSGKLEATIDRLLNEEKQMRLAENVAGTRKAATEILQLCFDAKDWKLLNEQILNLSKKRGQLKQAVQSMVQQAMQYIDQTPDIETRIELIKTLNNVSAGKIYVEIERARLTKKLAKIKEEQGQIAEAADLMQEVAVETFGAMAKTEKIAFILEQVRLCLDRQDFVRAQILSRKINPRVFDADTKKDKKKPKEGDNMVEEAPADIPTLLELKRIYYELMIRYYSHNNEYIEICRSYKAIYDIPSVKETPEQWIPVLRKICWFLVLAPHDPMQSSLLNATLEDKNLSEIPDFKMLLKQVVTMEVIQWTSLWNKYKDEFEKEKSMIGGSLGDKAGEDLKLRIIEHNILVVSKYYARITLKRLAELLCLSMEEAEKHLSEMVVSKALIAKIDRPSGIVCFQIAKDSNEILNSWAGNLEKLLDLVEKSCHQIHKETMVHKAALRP
UniProt Q9LYZ7: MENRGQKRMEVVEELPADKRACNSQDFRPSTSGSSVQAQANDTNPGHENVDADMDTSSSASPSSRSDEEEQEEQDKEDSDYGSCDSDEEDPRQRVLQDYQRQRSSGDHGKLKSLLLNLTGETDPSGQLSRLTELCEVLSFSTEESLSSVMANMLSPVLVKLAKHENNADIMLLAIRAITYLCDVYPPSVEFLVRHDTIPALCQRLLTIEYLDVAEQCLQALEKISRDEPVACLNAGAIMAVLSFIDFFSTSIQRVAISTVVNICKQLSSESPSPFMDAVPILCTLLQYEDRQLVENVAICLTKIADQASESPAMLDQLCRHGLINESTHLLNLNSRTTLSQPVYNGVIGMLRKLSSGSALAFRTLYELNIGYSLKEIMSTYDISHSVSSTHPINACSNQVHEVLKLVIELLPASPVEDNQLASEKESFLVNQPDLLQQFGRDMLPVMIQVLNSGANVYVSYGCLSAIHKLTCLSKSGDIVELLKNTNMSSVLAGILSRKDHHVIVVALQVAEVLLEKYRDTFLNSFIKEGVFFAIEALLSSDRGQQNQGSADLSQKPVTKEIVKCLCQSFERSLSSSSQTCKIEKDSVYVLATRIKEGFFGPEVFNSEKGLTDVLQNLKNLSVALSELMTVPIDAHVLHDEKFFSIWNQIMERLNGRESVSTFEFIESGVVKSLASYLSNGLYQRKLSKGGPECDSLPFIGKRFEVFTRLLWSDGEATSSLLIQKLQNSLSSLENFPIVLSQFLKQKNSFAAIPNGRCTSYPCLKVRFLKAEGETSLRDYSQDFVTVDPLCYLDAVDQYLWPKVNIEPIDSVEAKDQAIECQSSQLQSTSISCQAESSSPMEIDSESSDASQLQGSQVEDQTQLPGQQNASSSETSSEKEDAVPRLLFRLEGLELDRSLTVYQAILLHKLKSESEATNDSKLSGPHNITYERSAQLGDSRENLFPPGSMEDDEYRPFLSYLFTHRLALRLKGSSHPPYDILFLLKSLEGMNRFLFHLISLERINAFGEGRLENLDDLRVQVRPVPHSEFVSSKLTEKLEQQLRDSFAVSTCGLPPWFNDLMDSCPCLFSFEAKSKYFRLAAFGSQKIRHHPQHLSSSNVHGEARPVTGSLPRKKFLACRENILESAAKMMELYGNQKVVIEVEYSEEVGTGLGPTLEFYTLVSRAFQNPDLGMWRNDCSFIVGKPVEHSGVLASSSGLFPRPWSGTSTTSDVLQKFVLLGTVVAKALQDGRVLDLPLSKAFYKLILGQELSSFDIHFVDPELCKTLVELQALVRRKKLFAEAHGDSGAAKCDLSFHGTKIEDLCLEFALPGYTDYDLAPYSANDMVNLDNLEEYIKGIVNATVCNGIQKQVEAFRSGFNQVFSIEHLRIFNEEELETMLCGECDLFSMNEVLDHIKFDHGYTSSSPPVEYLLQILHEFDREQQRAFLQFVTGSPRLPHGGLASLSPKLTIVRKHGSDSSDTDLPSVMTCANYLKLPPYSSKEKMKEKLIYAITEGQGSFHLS
UniProt Q8GY23: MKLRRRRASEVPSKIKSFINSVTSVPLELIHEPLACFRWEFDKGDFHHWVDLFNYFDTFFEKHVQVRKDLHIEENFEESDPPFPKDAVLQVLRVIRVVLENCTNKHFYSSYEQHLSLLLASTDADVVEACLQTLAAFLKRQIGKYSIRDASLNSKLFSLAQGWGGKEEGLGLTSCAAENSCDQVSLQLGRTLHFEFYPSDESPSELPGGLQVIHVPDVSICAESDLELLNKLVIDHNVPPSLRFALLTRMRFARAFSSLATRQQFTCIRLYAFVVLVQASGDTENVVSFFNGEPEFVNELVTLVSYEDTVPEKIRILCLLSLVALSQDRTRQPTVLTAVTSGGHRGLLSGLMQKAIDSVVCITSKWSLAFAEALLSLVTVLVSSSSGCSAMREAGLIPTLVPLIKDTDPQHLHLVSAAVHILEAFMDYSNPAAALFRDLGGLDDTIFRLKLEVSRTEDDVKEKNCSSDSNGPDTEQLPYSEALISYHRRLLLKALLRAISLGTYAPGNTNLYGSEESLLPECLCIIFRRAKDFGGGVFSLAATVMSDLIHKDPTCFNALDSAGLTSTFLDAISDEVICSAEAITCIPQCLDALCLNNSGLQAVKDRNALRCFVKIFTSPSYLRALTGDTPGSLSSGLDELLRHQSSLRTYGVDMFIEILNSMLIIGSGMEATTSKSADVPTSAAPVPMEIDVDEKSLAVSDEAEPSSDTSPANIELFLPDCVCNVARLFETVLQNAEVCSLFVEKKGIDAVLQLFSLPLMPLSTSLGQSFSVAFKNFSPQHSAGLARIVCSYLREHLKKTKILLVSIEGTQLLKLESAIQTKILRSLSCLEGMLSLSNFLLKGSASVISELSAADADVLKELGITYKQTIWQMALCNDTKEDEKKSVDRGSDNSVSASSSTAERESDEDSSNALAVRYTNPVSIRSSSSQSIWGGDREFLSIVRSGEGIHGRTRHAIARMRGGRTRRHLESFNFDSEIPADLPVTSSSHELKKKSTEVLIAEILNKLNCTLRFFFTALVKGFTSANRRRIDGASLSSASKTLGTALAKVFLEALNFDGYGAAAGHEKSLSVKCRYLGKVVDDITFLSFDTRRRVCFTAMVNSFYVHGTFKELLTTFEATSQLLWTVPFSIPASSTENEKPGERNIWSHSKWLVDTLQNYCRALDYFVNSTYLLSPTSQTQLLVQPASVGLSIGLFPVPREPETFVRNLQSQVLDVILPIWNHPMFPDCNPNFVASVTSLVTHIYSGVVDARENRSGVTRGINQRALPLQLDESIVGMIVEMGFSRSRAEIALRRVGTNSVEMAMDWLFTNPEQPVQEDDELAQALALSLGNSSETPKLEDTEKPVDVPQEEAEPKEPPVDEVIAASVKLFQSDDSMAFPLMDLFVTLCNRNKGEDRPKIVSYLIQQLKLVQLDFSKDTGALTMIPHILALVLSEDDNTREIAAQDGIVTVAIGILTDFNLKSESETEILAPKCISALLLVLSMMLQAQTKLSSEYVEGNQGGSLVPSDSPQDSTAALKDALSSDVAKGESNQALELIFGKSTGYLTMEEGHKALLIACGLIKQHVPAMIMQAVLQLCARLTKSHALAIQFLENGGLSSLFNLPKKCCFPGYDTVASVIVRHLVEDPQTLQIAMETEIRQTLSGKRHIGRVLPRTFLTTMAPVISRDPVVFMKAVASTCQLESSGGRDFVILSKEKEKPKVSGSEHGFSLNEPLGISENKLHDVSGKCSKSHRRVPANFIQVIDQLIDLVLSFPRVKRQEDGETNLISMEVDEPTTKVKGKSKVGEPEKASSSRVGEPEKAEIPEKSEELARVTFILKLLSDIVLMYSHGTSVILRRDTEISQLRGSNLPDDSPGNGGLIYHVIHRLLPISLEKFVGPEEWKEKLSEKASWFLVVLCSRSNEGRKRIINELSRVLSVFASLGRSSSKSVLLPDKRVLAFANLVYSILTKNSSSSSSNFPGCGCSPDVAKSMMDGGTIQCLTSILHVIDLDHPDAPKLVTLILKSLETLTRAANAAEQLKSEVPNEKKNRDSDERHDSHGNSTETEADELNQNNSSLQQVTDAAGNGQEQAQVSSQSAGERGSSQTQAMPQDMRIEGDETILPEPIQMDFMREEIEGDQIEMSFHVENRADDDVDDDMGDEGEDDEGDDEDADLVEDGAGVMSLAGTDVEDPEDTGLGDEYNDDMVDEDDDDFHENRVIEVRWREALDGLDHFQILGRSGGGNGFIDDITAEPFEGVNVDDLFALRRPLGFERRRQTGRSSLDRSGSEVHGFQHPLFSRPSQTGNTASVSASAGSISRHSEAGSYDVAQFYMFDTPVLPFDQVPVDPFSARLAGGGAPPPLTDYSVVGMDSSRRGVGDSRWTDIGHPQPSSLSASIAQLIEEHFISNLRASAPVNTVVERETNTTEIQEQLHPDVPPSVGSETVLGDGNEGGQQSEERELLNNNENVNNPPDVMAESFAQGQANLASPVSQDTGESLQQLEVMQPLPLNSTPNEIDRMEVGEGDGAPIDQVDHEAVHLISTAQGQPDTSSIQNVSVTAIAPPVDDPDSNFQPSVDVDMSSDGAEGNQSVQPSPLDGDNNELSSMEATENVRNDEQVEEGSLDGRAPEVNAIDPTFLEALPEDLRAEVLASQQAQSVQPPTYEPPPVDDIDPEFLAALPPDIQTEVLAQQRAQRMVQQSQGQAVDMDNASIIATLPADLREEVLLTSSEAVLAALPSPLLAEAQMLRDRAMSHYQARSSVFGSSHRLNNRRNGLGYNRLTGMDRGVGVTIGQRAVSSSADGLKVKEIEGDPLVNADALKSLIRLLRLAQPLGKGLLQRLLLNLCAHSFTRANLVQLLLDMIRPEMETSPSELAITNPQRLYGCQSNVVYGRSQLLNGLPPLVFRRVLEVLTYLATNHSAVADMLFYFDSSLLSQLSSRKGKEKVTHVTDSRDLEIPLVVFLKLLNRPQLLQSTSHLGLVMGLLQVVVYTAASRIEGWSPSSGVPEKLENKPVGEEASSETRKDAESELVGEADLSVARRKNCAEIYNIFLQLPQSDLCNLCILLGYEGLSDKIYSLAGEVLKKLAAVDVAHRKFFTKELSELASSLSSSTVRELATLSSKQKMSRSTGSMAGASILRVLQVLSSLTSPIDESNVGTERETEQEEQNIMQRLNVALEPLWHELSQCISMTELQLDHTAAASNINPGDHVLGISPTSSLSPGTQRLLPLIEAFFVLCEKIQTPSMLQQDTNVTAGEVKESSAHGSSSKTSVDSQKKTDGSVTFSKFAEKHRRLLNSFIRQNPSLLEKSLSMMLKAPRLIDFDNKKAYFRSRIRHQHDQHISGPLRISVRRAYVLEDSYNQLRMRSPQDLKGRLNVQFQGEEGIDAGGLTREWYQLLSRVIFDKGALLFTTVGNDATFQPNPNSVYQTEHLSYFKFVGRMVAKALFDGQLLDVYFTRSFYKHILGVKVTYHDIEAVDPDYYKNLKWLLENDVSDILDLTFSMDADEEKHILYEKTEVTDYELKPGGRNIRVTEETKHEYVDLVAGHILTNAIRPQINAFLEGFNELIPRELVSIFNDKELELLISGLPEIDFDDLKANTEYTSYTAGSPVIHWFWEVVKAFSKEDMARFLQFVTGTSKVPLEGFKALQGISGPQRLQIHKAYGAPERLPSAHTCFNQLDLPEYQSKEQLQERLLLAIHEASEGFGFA

Target: T1, GST-MAPKKK18 (Arabidopsis thaliana) (UniProt Q9ZVP5)
T1 sequence: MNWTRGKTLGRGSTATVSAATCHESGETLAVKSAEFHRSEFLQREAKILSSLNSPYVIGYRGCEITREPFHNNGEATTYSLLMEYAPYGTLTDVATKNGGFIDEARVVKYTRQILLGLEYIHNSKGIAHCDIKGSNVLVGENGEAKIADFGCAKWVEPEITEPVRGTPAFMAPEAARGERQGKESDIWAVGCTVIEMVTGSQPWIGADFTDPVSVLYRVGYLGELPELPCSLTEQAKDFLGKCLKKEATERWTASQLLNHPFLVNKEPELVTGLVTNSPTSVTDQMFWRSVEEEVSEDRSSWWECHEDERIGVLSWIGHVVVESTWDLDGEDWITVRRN
Test: affinity purification with mass spectrometry; recombinant GST-MAPKKK18 incubated with total extract of 7-d-old A. thaliana WT Col-0 seedlings (1× PBS pH 7.4, NaCl, 0.1% NP-40, 1 mM DTT, PMSF); bound proteins identified by LC-MS/MS (Orbitrap Velos, Mascot, TAIR10); GST-CDPK34 as control; only the target purified

Molecule: KEG E3 ubiquitin ligase (endogenous) (from UniProt Q9FY48 1-1625) (enzyme)
- binding: binds

Molecule: RPN5a (19S regulatory unit of the 26S proteasome) (from UniProt Q9FIB6 1-442)
- binding: binds

Molecule: UPL4 HECT-type E3 ubiquitin ligase (endogenous) (from UniProt Q9LYZ7 1-1502) (enzyme)
- binding: binds

The next lines start with the values.

- binding: binds
Molecule: UPL1 HECT-type E3 ubiquitin ligase (endogenous) (from UniProt Q8GY23 1-3681) (enzyme)

- binding: binds
B1: PAF2 (alpha ring of the 20S proteasome proteolytic unit) (protein, UniProt O23712 1-277)
chain: MFRNQYDTDVTTWSPTGRLFQVEYAMEAVKQGSAAIGLRSRSHVVLACVNKAQSELSSHQRKIFKVDDHIGVAIAGLTADGRVLSRYMRSESINHSFTYESPLPVGRLVVHLADKAQVCTQRSWKRPYGVGLLVGGLDESGAHLYYNCPSGNYFEYQAFAIGSRSQAAKTYLERKFESFQESSKEDLIKDAIMAIRETLQGETLKSSLCTVSVLGVDEPFHFLDQESIQKVIDTFEKVPEEEEDAGEGEAEPEAAPGAAGTGEQGGSGDQDVAPMEI

No constants are given. Whether binding was seen depends on the method and setting. In cells and extracts the contact can be indirect. These calls come from enrichment with a bait or labelling near it, and not all partners need be listed. Sequences can lack the tags named with a protein. Each block holds one molecule with its values, some of them ahead of it.
